Reference: PMC3530481
Results are given in words; binding and its absence hold for the method and conditions named. For some assays here: Binding seen in cells or lysates may run through a third protein. Some results given as binding are weak or reduced against the parent protein; the word gives no strength.

Chains of the proteins cited; added tags and fusions are not shown. Lines headed by an entry give the natural chain unless they say otherwise; changes in a name come on top.
UniProt P12109: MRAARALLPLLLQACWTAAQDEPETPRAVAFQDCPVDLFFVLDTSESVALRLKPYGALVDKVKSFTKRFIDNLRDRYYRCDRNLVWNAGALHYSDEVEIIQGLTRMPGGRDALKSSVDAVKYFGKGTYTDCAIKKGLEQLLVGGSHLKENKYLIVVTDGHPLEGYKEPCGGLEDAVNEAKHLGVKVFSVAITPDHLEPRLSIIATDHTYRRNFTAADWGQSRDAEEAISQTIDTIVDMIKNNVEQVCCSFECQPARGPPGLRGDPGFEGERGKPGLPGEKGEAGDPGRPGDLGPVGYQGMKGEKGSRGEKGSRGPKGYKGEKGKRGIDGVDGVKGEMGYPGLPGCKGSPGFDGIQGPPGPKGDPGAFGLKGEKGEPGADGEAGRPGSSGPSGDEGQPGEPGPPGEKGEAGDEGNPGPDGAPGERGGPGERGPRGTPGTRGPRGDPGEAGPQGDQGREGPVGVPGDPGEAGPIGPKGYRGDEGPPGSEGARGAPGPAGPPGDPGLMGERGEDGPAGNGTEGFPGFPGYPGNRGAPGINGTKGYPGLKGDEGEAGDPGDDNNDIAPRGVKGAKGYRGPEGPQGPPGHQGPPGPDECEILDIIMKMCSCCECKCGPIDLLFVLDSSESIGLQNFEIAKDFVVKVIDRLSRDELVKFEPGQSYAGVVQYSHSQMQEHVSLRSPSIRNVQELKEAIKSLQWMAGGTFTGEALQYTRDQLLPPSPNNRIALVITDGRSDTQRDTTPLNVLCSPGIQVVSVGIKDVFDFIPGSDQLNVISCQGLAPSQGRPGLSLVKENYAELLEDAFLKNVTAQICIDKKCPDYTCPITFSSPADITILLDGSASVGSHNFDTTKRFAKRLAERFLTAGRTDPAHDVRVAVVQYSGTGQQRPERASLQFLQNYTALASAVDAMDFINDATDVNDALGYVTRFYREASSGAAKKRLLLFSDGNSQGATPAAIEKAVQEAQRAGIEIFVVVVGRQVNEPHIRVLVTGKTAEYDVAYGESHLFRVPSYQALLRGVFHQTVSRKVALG
UniProt P12110: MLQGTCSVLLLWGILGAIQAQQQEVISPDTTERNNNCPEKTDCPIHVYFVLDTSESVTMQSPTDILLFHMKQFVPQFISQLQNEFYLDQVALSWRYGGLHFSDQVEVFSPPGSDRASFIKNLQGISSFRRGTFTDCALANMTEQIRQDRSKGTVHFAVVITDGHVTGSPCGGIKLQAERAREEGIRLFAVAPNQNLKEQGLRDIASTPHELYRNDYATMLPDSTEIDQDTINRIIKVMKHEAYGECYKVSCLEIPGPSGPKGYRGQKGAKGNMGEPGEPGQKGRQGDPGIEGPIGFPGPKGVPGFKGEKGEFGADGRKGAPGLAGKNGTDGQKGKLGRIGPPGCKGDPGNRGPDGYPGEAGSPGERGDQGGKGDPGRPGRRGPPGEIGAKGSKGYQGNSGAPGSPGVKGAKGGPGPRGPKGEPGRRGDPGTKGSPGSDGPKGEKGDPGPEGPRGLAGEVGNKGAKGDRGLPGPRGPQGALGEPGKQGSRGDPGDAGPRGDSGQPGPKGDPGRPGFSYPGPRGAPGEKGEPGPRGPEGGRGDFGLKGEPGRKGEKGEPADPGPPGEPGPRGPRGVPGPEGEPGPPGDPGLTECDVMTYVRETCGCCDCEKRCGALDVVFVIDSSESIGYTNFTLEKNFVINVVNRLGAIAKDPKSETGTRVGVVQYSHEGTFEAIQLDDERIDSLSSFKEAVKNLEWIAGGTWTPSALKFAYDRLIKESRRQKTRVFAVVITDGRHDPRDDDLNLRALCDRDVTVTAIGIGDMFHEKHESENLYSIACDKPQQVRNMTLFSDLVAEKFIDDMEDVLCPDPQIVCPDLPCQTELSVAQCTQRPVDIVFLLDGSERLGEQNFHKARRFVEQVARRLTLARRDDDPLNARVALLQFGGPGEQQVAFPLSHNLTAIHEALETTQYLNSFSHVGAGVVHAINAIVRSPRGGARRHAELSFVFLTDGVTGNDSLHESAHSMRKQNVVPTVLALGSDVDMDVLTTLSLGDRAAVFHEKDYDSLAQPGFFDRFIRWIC
UniProt P12111: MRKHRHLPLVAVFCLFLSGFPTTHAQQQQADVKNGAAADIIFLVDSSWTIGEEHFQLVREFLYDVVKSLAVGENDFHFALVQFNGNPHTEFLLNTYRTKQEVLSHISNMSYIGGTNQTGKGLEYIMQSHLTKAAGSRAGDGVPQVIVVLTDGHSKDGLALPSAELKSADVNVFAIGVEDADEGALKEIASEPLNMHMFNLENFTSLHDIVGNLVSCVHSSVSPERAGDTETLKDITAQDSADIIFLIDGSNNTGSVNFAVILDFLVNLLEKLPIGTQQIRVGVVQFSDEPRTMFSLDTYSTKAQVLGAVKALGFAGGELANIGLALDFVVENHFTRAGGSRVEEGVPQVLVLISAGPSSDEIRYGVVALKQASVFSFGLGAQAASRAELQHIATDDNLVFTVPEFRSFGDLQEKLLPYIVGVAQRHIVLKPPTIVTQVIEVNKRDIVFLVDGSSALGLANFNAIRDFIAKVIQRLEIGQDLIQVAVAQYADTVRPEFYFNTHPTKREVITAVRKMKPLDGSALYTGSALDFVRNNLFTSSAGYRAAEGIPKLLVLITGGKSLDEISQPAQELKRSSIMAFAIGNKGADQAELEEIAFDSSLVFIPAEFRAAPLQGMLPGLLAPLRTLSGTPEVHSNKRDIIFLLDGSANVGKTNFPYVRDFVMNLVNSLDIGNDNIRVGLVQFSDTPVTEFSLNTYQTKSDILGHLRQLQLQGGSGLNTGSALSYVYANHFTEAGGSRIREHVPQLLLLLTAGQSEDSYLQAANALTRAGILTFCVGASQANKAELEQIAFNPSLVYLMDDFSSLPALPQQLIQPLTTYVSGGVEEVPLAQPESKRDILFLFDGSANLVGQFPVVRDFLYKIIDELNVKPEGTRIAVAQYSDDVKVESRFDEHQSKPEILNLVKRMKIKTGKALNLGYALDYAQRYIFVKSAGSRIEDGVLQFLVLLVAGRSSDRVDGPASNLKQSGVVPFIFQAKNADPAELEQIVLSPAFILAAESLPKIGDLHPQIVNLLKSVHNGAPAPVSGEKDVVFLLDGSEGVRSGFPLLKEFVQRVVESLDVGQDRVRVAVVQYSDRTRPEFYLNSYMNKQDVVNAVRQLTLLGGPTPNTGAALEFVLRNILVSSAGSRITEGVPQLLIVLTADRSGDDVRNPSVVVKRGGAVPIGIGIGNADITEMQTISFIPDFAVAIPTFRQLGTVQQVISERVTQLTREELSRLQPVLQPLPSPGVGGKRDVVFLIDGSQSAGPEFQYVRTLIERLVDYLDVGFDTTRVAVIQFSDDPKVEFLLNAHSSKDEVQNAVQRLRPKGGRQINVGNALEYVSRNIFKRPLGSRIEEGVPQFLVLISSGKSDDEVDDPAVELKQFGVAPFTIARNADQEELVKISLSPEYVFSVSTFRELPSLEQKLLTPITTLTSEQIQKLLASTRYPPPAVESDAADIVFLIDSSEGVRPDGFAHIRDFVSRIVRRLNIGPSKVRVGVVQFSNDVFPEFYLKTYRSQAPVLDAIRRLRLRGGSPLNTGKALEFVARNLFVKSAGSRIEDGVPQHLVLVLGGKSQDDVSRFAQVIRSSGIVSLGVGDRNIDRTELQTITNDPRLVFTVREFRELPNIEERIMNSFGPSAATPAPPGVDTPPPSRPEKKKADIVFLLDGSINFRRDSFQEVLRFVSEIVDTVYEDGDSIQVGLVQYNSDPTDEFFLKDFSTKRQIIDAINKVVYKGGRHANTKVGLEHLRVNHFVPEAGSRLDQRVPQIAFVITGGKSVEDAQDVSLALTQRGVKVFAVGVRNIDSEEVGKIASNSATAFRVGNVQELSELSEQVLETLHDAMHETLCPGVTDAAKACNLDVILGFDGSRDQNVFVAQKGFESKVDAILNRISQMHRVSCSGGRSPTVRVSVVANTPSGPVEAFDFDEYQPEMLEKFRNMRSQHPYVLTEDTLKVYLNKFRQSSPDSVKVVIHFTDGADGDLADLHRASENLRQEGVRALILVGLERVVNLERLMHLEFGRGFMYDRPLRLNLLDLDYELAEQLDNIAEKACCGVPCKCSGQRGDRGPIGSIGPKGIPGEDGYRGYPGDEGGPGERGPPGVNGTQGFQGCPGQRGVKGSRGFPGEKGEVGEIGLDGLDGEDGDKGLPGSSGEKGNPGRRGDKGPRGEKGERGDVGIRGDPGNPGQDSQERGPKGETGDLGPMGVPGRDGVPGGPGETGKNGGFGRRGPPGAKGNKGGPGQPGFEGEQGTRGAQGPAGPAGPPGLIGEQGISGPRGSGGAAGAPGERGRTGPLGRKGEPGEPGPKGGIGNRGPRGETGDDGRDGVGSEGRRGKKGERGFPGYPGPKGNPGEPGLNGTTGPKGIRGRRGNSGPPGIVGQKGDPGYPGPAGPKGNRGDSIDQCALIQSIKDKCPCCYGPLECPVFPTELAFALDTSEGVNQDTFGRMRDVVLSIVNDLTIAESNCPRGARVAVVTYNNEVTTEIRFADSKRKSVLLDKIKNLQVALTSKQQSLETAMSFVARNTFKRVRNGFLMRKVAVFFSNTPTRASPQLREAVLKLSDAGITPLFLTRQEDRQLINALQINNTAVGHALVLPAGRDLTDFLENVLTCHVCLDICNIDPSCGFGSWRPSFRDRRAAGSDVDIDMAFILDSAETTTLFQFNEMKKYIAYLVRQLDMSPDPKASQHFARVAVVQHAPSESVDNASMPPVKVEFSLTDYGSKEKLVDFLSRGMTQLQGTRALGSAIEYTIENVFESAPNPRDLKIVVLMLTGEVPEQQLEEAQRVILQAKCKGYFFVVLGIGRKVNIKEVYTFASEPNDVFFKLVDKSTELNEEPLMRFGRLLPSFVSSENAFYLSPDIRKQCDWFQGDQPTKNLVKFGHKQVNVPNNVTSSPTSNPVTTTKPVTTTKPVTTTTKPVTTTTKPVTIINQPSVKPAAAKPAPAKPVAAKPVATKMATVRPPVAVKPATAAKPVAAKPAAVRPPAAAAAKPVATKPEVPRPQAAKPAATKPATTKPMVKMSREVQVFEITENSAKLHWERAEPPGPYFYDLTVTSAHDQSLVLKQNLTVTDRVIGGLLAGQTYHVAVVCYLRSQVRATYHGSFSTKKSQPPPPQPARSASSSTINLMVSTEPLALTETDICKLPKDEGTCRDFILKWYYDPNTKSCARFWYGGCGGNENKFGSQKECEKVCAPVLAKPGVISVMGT

Legend:
[1] = target: T1, collagen VI-containing suprastructures, endogenous in human articular cartilage (human (endogenous in articular cartilage)) (UniProt P12109+P12110+P12111); assay: immunobead isolation of suprastructures with immuno-gold electron microscopy; collagen VI suprastructures isolated from human articular cartilage extracts with immunobeads coupled to collagen VI antibodies, then doubly immuno-labeled for WARP (18-nm gold) and collagen VI (small gold)
[2] = target: T1, collagen VI-containing suprastructures, endogenous in human articular cartilage (human (endogenous in articular cartilage)); assay: co-IP; collagen VI suprastructures isolated from human articular cartilage extracts with superparamagnetic immunobeads coupled to anti-collagen VI (AF 6210); bead pellet, supernatant and crude extract immunoblotted for WARP and collagen VI under reducing conditions

binding [1]: binds
binding [2]: binds
B1: WARP, endogenous in human articular cartilage (protein, UniProt Q6PCB0 23-445)
chain: ERGPPASAPRGDLMFLLDSSASVSHYEFSRVREFVGQLVAPLPLGTGALRASLVHVGSRPYTEFPFGQHSSGEAAQDAVRASAQRMGDTHTGLALVYAKEQLFAEASGARPGVPKVLVWVTDGGSSDPVGPPMQELKDLGVTVFIVSTGRGNFLELSAAASAPAEKHLHFVDVDDLHIIVQELRGSILDAMRPQQLHATEITSSGFRLAWPPLLTADSGYYVLELVPSAQPGAARRQQLPGNATDWIWAGLDPDTDYDVALVPESNVRLLRPQILRVRTRPGEAGPGASGPESGAGPAPTQLAALPAPEEAGPERIVISHARPRSLRVSWAPALGSAAALGYHVQFGPLRGGEAQRVEVPAGRNCTTLQGLAPGTAYLVTVTAAFRSGRESALSAKACTPDGPRPRPRPVPRAPTPGTASREP
